In publication PMC7862700:
This is a selection; strong and weak results do not stand in their true shares. At the low end of the ranking, values are background and their order means little.

Columns and labels:
Assay in all cases: DAPPL (digital affinity profiling via proximity ligation, sequencing)
Conditions in all cases: 10 mM Tris-HCl pH 7.5, 50 mM NaCl, 1 mM DTT, 4% glycerol, room temperature, 30 min; GST-TFs on glutathione beads, 16-mer random dsDNA library, 0.1% …; high values mean tight binding; double strand, one strand shown; scale: fold enrichment (6-mer frequency, TF over GST control)
ELK1 = molecular target: T1, ELK1 (UniProt P19419)
T1 sequence: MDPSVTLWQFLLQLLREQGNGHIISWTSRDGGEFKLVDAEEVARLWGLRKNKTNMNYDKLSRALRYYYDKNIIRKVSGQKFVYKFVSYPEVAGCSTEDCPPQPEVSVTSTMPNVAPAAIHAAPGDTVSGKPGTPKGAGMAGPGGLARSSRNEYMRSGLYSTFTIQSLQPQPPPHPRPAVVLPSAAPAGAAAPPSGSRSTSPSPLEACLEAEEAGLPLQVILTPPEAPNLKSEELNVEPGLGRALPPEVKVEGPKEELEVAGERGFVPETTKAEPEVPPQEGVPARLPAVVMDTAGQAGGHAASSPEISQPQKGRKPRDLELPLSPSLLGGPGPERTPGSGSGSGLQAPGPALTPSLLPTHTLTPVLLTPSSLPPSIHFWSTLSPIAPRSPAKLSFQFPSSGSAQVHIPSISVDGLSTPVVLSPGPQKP

ELK3 = molecular target: T2, ELK3 (UniProt P41970)
T2 sequence: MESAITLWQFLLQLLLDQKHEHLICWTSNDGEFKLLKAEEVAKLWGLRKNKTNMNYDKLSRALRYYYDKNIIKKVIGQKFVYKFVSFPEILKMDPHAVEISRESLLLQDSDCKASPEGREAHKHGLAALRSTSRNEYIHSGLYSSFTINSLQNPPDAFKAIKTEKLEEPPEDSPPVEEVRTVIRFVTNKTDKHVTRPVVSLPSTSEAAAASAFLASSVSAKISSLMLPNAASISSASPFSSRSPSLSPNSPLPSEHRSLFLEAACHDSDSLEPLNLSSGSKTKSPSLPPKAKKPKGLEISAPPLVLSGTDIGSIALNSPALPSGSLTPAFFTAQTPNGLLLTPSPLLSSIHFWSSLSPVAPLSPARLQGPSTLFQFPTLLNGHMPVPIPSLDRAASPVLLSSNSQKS

ETS2 = molecular target: T3, ETS2 (UniProt P15036)
T3 sequence: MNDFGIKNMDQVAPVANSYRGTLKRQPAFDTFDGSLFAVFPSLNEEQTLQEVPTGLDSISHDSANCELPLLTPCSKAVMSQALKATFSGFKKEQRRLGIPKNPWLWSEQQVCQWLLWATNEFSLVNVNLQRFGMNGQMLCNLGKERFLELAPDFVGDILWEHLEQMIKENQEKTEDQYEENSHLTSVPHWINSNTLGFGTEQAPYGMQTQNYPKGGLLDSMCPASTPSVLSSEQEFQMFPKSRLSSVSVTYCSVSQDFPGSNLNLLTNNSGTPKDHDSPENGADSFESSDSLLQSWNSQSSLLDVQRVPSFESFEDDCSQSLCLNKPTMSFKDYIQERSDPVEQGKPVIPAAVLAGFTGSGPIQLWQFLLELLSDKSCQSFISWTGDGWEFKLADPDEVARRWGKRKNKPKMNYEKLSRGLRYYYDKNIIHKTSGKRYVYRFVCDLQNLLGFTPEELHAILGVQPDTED

ETV3 = molecular target: T4, ETV3 (UniProt P41162-2)
T4 sequence: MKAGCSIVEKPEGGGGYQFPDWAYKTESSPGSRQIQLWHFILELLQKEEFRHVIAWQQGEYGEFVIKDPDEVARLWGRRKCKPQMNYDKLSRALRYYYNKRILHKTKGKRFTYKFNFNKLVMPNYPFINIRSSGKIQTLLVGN

| Sequence | binding signal (ELK1) | binding signal (ELK3) | binding signal (ETS2) | binding signal (ETV3) |
| --- | --- | --- | --- | --- |
| CTGTGG | 0.835 | 0.891 | 0.815 | 0.835 |
| TCGAGC | 0.968 | 1.01 | 0.995 |  |
| ATCCTC | 1.47 | 1.36 | 1.41 |  |
| CAGTTC | 1.05 | 0.968 | 0.991 |  |
| CGCCCA | 1.13 | 1.04 | 1.04 | 0.994 |
| ATGGGA | 0.854 | 0.804 | 0.896 | 0.904 |
| CATAAT | 0.983 | 0.971 | 0.99 | 0.986 |
| CGCTGT | 0.87 | 0.865 | 0.947 | 0.987 |
| AGATGG | 0.823 | 0.821 | 0.826 | 0.876 |
| CGGATC | 0.947 | 0.916 | 0.984 |  |
| GATGGA | 0.889 | 0.873 | 0.895 | 0.883 |
| AGTTTG | 0.995 | 0.931 | 0.966 | 0.994 |
| CATCCA | 1.06 | 0.964 | 0.937 | 0.993 |
| TGGATT | 0.974 | 0.998 | 1.03 | 0.952 |
| AGGGAA | 0.912 | 0.903 | 0.996 | 0.952 |
| AGCAGA | 0.878 | 0.926 | 0.935 | 0.965 |
| AATGTG | 0.973 | 0.925 | 0.982 | 0.942 |
| GGGCAT | 0.95 | 0.853 | 0.899 | 0.858 |
| GGCACC | 0.842 | 0.84 | 0.818 | 0.894 |
| AGGTCC | 0.97 | 0.883 | 0.949 |  |
| ACAAGA | 0.923 | 0.979 | 0.986 | 0.926 |
| CTAAGG | 0.955 | 0.87 | 0.922 | 0.936 |
| CTTGAG | 0.938 | 0.981 | 0.875 | 0.926 |
| CACGGC | 0.949 | 0.967 | 0.972 | 0.943 |

| Sequence | binding signal (ELK1) | binding signal (ELK3) | binding signal (ETS2) | binding signal (ETV3) |
| --- | --- | --- | --- | --- |
| CTGGGG | 0.823 | 0.83 | 0.926 | 0.769 |
| AACGCG | 0.994 | 0.963 | 0.99 |  |
| CGAAAT | 0.99 | 0.952 | 0.984 |  |
| TCCTAA | 1.34 | 1.43 | 1.49 |  |
| ATGAAC | 1.28 |  |  | 1.28 |
| ATCCGT | 0.967 | 0.939 | 0.969 |  |
| GCCCGC | 1.15 |  |  | 1.16 |
| TTCGGC | 1.14 | 0.876 | 0.968 |  |
| CCGACA | 1.18 | 1.16 | 1.26 |  |
| GTATAA | 1.21 | 0.987 | 1.08 |  |
| GACTTA | 0.999 | 0.838 | 0.965 |  |
| ACCCAC | 1.24 |  |  | 1.13 |
| ATTACA | 1.13 |  |  | 1.04 |
| AACGGC | 1.13 |  |  | 1.29 |
| TGATCA | 1.05 | 1.18 | 1.06 |  |
| CGTTTC | 1.68 |  |  | 1.83 |
| CCCGCG | 1.05 | 0.95 | 0.947 |  |
| TCTGGT | 1.29 |  |  | 1.29 |
| CCCGAA | 1.26 |  |  | 1.33 |
| CGCTAT | 0.988 |  |  | 1.14 |
| CTGAAG | 1.14 |  |  | 1.05 |
| AGGCCC | 0.909 | 0.93 | 0.926 |  |
| GGTATG | 1.03 | 0.997 | 0.927 |  |
| GGACTC | 0.976 | 1.04 | 0.994 |  |

| Sequence | binding signal (ELK1) | binding signal (ELK3) | binding signal (ETS2) | binding signal (ETV3) |
| --- | --- | --- | --- | --- |
| GAGCTT | 0.98 | 1.02 | 0.994 |  |
| TTGCCA | 0.988 | 1.05 | 1.05 |  |
| GATACA | 0.989 |  |  | 1.01 |
| GTAATG | 1.07 |  |  | 0.999 |
| ATAGGC | 0.95 |  |  | 0.945 |
| TCGTCT | 1.34 |  |  | 1.23 |
| TGTTCG | 1.1 |  |  | 1.01 |
| TGAAAT | 0.993 | 0.973 | 0.976 |  |
| TGCCCT | 1.25 | 1.07 | 1.21 |  |
| CAATCT | 1.18 |  |  | 1.19 |
| CCTAGG | 0.914 | 0.921 | 0.963 |  |
| CTACTG | 1.28 |  |  | 1.16 |
| CGCAAT | 0.974 | 0.947 | 0.946 |  |
| TCGATA | 1.03 |  |  | 1.11 |
| ATGAGG | 0.899 | 0.966 | 0.985 |  |
| CGACGG | 0.937 | 0.987 | 0.982 |  |
| GTTTCA | 1.27 |  |  | 1.3 |
| TGACTG | 1.09 | 0.905 |  | 0.957 |
| GTTATA | 0.988 |  |  | 0.987 |
| TCCATG | 1.18 | 1.24 |  | 1.19 |
| GTCCTG | 0.96 | 1.05 |  | 1.2 |
| GAACTG | 0.993 | 0.87 |  | 1.09 |
| GACTAC | 1.19 |  |  | 1.11 |
| CTCCCC | 1.31 |  |  | 1.38 |

| Sequence | binding signal (ELK1) | binding signal (ELK3) | binding signal (ETS2) | binding signal (ETV3) |
| --- | --- | --- | --- | --- |
| TCTATA | 1.13 |  |  | 1.06 |
| TAGGGC | 1.07 | 0.925 |  | 1.03 |
| CATTGC | 0.985 |  |  | 0.938 |
| GCTAGT | 0.999 | 1.11 |  | 0.981 |
| TATAGG | 1.06 |  |  | 1.17 |
| GCATTT | 1.38 |  |  | 1.36 |
| TTTGTC | 1.21 |  |  | 1.29 |
| GTACTA | 1.06 |  |  | 1.09 |
| GGTTAT | 0.997 | 1.07 |  | 1.05 |
| TTTGTG | 1.2 | 1.17 |  | 1.13 |
| CGCTGG | 0.987 | 0.938 |  | 1.12 |
| GAATAT | 1.08 | 1.12 |  | 1.12 |
| TTGGGG | 1.24 | 1.31 |  | 1.13 |
| GTAGAT | 0.975 | 0.912 |  | 0.922 |
| CGTTCC | 1.35 | 1.46 |  | 1.41 |
| AGAAAA | 0.934 |  |  | 0.964 |
| TCATAA | 1.05 | 0.986 |  | 0.986 |
| ATATCC | 2.88 |  |  | 2.89 |
| GGTAAC | 1 |  |  | 0.975 |
| TAGACT | 0.973 | 0.895 |  | 0.981 |
| CAGCAC | 0.964 | 0.92 |  | 0.932 |
| TTGCAA | 1.28 |  |  | 1.18 |
| TGTGGT | 0.966 | 0.992 |  | 0.995 |
| TCTCTT | 1.34 |  |  | 1.44 |

| Sequence | binding signal (ELK1) | binding signal (ELK3) | binding signal (ETS2) | binding signal (ETV3) |
| --- | --- | --- | --- | --- |
| ACCTAT | 1.26 |  |  | 1.17 |
| GTGTCT | 0.994 | 0.908 |  | 1.02 |
| TCTAGG | 0.964 |  |  | 1.12 |
| TCACAA | 1.14 |  |  | 1.08 |
| CTCGGT | 0.978 | 0.889 |  | 0.983 |
| TGAAAG | 0.995 | 0.87 |  | 0.966 |
| ATCCCA | 1.14 |  |  | 0.995 |
| GTACAA | 1.08 |  |  | 1.11 |
| TCACTA | 1.22 | 0.999 |  |  |
| ATATCT | 1.19 | 1.15 |  | 1.19 |
| AGACTT | 1.04 | 0.99 |  |  |
| TTGTAA | 1.3 | 1.08 |  |  |
| CTTCCG | 8.14 | 9.13 |  |  |
| GATTTG | 1.16 | 0.953 |  |  |
| AAGCTT | 1.33 | 1.31 |  |  |
| GCTGTT | 1.07 | 1.04 |  |  |
| GTCGAC | 0.987 | 1.06 |  | 0.971 |
| ATGCCG | 1.13 | 1.07 |  |  |
| TGCGCA | 1.07 | 0.967 |  |  |
| TGTGCC | 1.2 | 1.3 |  |  |
| CCCGGT | 0.994 | 0.921 |  |  |
| GATTCG | 0.974 | 0.728 |  |  |
| GCTTAA | 0.976 | 0.949 |  |  |
| TAAGCG | 0.987 | 1.01 |  |  |

Reprinted at random: 2 records from the list

| Sequence | binding signal (ELK1) | binding signal (ELK3) | binding signal (ETS2) | binding signal (ETV3) |
| --- | --- | --- | --- | --- |
| GCTTAA | 0.976 | 0.949 |  |  |
| CTCGGT | 0.978 | 0.889 |  | 0.983 |

2 consecutive records from above:

| Sequence | binding signal (ELK1) | binding signal (ELK3) | binding signal (ETS2) | binding signal (ETV3) |
| --- | --- | --- | --- | --- |
| GATTTG | 1.16 | 0.953 |  |  |
| AAGCTT | 1.33 | 1.31 |  |  |
